From patent US20160280736A1, “CYCLIC PEPTIDE COMPOUND, AND PREPARATION METHOD, PHARMACEUTICAL COMPOSITION AND USE THEREOF” (HANGZHOU GUANYU BIO-MEDICAL CO., LTD., priority 2013, published 2016)

Sequences of proteins named here, by UniProt entry; tags and fusion partners are left off.
UniProt Q8WUI4, whole entry: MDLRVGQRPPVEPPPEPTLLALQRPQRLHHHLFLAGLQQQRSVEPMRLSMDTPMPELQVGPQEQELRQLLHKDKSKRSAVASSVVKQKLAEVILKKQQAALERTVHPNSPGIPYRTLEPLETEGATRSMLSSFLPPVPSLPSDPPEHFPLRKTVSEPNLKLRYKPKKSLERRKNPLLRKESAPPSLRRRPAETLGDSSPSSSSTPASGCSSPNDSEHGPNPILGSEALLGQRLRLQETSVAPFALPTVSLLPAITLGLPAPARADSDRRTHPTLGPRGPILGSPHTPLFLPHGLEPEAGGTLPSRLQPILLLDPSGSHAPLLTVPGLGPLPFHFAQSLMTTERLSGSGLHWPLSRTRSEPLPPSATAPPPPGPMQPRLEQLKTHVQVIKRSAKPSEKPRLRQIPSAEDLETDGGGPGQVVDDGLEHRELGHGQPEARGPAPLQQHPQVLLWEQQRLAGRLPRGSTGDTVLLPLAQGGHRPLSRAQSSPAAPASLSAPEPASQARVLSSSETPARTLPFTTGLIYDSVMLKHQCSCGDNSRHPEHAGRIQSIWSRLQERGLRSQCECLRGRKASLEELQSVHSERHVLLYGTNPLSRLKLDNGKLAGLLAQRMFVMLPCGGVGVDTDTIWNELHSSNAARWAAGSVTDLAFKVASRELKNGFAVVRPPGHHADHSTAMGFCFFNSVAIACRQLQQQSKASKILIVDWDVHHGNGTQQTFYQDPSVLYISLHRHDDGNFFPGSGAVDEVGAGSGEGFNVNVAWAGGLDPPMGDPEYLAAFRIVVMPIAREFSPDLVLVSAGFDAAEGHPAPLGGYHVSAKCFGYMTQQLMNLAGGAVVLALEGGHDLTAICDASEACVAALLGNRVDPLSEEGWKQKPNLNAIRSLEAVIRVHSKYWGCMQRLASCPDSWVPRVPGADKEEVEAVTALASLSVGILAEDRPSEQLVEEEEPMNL

target: HDAC7 (Homo sapiens, UniProt Q8WUI4); assay: HDAC biochemical activity measurement (fluorescent substrate deacetylation); conditions: HDAC7 enzyme, 37°, 30 minutes

IC50 (μM) HDAC7, no activity:
C/C=C1\NC(=O)c2cc(C)cc(n2)CNC(=O)C[C@@H](/C=C/CCSC(C)=O)OC(=O)[C@H](Cc2ccccc2)NC1=O, C/C=C1\NC(=O)c2ccc(F)c(n2)CNC(=O)C[C@@H](/C=C/CCSC(=O)CCCCCCC)OC(=O)[C@H](C)NC1=O, C/C=C1\NC(=O)c2nc(ccc2F)CNC(=O)C[C@@H](/C=C/CCSC(C)=O)OC(=O)[C@H](C)NC1=O

The match of structure and compound is tentative.
